Source: paper PMC10968678
No constants are given. Whether binding was seen depends on the method and setting. In cells and extracts the contact can be indirect. Some results given as binding are weak or reduced against the parent protein; the word gives no strength. Tags and fused reporters may be left off the sequences shown.

The chains behind the UniProt entries cited, without tags or fusion partners.
UniProt Q09472: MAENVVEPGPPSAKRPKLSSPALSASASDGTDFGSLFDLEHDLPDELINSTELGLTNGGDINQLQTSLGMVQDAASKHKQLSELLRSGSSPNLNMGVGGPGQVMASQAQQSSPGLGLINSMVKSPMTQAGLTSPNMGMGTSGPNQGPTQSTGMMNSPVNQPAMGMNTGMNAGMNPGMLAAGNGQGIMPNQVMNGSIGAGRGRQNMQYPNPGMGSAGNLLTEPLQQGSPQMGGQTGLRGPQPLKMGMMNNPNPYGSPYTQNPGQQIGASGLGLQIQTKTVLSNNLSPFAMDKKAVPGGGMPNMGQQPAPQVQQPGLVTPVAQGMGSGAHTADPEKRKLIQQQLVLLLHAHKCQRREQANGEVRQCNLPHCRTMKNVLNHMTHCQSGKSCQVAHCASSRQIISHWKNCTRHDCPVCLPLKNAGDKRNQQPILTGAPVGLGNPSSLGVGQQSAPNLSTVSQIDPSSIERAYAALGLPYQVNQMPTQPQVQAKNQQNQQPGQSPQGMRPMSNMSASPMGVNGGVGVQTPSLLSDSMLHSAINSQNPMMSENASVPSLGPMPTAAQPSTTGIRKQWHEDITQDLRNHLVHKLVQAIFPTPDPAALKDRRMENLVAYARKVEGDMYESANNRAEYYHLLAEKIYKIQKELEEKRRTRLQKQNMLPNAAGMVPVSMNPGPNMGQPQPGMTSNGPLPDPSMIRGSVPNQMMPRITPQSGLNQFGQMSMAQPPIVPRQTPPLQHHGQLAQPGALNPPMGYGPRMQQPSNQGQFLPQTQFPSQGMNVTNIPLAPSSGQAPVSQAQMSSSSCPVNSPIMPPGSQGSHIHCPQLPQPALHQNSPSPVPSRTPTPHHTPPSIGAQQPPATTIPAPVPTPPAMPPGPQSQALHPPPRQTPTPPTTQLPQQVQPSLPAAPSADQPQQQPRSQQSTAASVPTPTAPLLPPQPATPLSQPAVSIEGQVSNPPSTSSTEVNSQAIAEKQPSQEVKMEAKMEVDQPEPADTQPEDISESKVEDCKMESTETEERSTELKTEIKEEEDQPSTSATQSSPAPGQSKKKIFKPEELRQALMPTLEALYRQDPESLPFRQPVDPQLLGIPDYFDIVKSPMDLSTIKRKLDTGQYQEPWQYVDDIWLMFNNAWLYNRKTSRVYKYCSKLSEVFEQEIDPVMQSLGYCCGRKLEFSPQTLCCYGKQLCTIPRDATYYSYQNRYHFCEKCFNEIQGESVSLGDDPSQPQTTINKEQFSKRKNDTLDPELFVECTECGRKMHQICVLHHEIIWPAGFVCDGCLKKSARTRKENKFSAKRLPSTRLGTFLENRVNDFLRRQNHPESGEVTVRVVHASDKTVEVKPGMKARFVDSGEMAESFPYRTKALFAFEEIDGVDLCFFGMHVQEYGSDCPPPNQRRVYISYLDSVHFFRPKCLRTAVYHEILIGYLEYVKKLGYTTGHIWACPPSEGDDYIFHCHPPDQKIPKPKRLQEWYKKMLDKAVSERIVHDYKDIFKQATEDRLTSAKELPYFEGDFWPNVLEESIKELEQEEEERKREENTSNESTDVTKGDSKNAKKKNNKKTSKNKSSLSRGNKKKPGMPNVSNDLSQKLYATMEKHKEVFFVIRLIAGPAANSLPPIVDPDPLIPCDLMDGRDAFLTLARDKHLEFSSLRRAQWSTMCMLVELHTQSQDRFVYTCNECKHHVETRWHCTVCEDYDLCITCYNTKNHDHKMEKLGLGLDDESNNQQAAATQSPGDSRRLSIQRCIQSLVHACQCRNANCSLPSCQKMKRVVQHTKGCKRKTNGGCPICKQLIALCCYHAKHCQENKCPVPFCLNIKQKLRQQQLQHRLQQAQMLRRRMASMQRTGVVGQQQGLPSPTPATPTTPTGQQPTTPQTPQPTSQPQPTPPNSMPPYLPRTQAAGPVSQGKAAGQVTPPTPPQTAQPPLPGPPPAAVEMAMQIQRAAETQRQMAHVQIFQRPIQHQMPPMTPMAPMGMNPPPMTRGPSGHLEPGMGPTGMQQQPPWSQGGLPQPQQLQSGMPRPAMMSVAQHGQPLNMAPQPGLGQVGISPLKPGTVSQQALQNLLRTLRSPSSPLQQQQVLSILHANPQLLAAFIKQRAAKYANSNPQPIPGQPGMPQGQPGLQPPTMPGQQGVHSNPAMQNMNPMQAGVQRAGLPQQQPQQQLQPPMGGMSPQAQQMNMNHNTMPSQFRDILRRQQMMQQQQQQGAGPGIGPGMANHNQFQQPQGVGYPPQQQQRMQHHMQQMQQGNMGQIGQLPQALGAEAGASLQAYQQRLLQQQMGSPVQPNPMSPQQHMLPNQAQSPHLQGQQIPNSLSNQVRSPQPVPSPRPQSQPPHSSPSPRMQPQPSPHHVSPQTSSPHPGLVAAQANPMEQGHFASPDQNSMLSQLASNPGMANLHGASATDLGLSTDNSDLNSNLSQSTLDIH

Target: EP300 (human (endogenous in HepG2)) (UniProt Q09472)
Assay: co-IP; cell extract (Pierce IP lysis buffer) incubated with the corresponding antibody overnight at 4 C, Protein A&G beads 4 h at 4 C, Western blot

binding: binds
B1: Glucosylceramidase Beta 3 (GBA3) (enzyme, UniProt Q9H227 1-469)
chain: MAFPAGFGWAAATAAYQVEGGWDADGKGPCVWDTFTHQGGERVFKNQTGDVACGSYTLWEEDLKCIKQLGLTHYRFSLSWSRLLPDGTTGFINQKGIDYYNKIIDDLLKNGVTPIVTLYHFDLPQTLEDQGGWLSEAIIESFDKYAQFCFSTFGDRVKQWITINEANVLSVMSYDLGMFPPGIPHFGTGGYQAAHNLIKAHARSWHSYDSLFRKKQKGMVSLSLFAVWLEPADPNSVSDQEAAKRAITFHLDLFAKPIFIDGDYPEVVKSQIASMSQKQGYPSSRLPEFTEEEKKMIKGTADFFAVQYYTTRLIKYQENKKGELGILQDAEIEFFPDPSWKNVDWIYVVPWGVCKLLKYIKDTYNNPVIYITENGFPQSDPAPLDDTQRWEYFRQTFQELFKAIQLDKVNLQVYCAWSLLDNFEWNQGYSSRFGLFHVDFEDPARPRVPYTSAKEYAKIIRNNGLEAHL
